According to US4489062A, “Pharmaceutical compounds, preparation, use and intermediates therefor and their preparation” (priority 1982, dated 1984):
Not every detail of the peptide structures is certain; ends, links or a residue may be inferred. Where a SMILES comes first, the peptide text is derived from it. [ ]: non-standard residue; d: D form. The star is where a group is joined. Phe(4-NO2) = N[C@@H](Cc1ccc([N+](=O)[O-])cc1)C(=O)O; Tyr(Nα-amidino) = N=C(N)N[C@@H](Cc1ccc(O)cc1)C(=O)*

Key:
Assay type in all cases: in vivo
female CD1 mice [1] = test: Irritant-induced writhing test, phenylbenzoquinone (PBQ); settings: compound administered 30 mins. prior to PBQ, calculated as the peptide per se
From the text: (§1) (1) Both the hotplate test (Woolfe and MacDonald, J. Pharmacol. Exp. Ther. 80:300, 1944) and the irritant-induced writhing (stretch) test (Vander Wende and Margolin, Fed. Proc. 15:494, 1956) are standard in the art for the investigation of analgesic activity. Whereas it is believed that the pain in the latter can be ameliorated either centrally or peripherally, it is thought that that induced in the hotplate test is affected only at the central level.
(i) Acetic Acid. Groups of five female CD1 mice (Charles River) received either a test compound or saline vehicle (0.85%) control by subcutaneous injection 15 mins. […] After a further 20 mins. the writhing or stretching movements induced by the irritant were counted over a 21/2 min. period, a writhe/stretch being identified as an extension of a hindlimb accompanied by constriction of the abdomen.
(ii) Phenylbenzoquinone (PBQ). This test was carried out in a parallel manner to that employing acetic acid, […], except that the period over which the writhing/stretching movements were counted began 10 mins. after administration of the PBQ irritant, the latter being given at a dosage of 2.5 mg/kg and in a dose volume of 10 ml/kg.
(§2) The ED50 figures for the test compounds were calculated, using linear regression analysis, as the dose in the presence of which only half the number of writhes/stretches was induced compared with the controls.

Male mice (CFLP strain) = test: Hotplate test; settings: 55° C. hotplate, 15 mins. after treatment, reaction time twice the pretreatment figure, Ex. compounds calculated as the peptide per se
From the text: as §1
Male mice (CFLP strain, Hacking and Churchill) were individually placed in a copper-bottomed perspex box suspended in a water bath at 55° C. and observed for signs of discomfort such as shaking or licking the paws, the reaction time (up to a maximum of 30 secs.) being recorded. Groups of five animals then received either a test compound or saline vehicle (0.85%) control by subcutaneous injection, the test being repeated at 15 mins. after treatment. The ED50 figures for the test compounds were calculated from the number of animals having a posttreatment reaction time which was twice the pretreatment figure.

female CD1 mice [2] = test: Irritant-induced writhing test, acetic acid; settings: s.c. 15 mins. prior to i.p. 0.6% acetic acid; Ex. compounds calculated as the peptide per se
From the text: as §1
(i) Acetic Acid. Groups of five female CD1 mice (Charles River) received either a test compound or saline vehicle (0.85%) control by subcutaneous injection 15 mins. (unless otherwise indicated) prior to an intraperitoneal injection of 0.6% acetic acid at a dose volume of 25 ml/kg. After a further 20 mins. the writhing or stretching movements induced by the irritant were counted over a 21/2 min. period, a writhe/stretch being identified as an extension of a hindlimb accompanied by constriction of the abdomen.
as §2

male TFW mice = test: Antagonism by quaternary opioid (N-methylnalorphine) in acetic acid writhing test
From the text: (3) The analgesia induced by the peptides in the writhing test upon peripheral (parenteral) administration is antagonised by parenteral administration of the quaternary opioid antagonist N-allyl-normorphine methiodide (N-methylnalorphine; Koczka et al, Acta Chim. Acad. Sci. Hung. 51:393, 1967), i.e. a higher dose of the peptide is required in the presence than in the absence of the opioid for the same effect. As penetration of the blood-brain barrier by the quaternary compound is minimal (c.f. Tavani et al, European J. Pharmacol. 59:151-154, 1979) both the peptide-induced analgesia and the antagonism thereof are effected at the peripheral level.
Groups of six male TFW mice (Tuck) received by intraperitoneal injection either N-methylnalorphine (16 mg/kg) or saline vehicle (0.85%) control at a volume of 10 ml/kg followed after 20 mins. by a solution of the test compound in saline (10 ml/kg, subcutaneous) and after a further 30 mins. by 0.6% acetic acid (25 ml/kg, intraperitoneal). The total number of writhes/stretches per group was then determined over the 5 min. period commencing 15 mins. after administration of the acetic acid. […]

For `N=C(N)NCCC[C@@H](NC(=O)[C@H](Cc1ccc(O)cc1)NC(=N)N)C(=O)NCC(=O)N[C@@H](Cc1ccc([N+](=O)[O-])cc1)C(=O)N1CCC[C@H]1C(N)=O` [Ex. 3, N--AmidinoTyr--D--Arg--Gly--Phe(4--NO2)--Pro.NH2 diacetate] ({Tyr(Nα-amidino)}-[dR]G[Phe(4-NO2)]P-NH2), the “ED50 (mg/kg, s.c.) PBQ writhing” value (female CD1 mice [1]) was 1.3 mg/kg, the “ED50 (mg/kg, s.c.), hotplate test” value (Male mice (CFLP strain)) was over 25 mg/kg and the “ED50 (mg/kg, s.c.) Acetic acid writhing” value (female CD1 mice [2]) was 1.2 mg/kg. For the same compound, the “ED50 (mg/kg, s.c.) Saline control (b)” value (male TFW mice; acetic acid writhing, saline i.p. 20 mins. before test compound s.c., Ex. compounds calculated as the peptide per se) was 0.5 mg/kg and the “Dose ratio (a):(b)” value (male TFW mice; ratio of equiactive doses in presence and absence of N-methylnalorphine, calculated from the linear regression of the dose/response curves) was 4.6.
